# The whole screen tested about 350,000 compounds, of which about 6,000 (1.7%) were called active. The shares of active, inactive and inconclusive entries below differ from those in the screen. No stated cut-off is given here; in the data, active means CPE inhibition above about 20% (passing the limit was not always enough); inconclusive means no clear call, values can overlap the other calls; tested in BHK-21 cells.
# Test: protection of cells from dengue 2 killing – plate reader, single concentration, primary screen (AID 651640);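 further: 0% = median of neutral control wells and 100% = median of positive control wells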
# Conditions: DENV2-infected cells, cytopathic effect rescue, at 9.99 µM, active compounds read high
row,SMILES,CPE inhibition
1,Nc1ncnc2c1ncn2[C@@H]1O[C@H](CNC(=O)[C@@H]2CCCN2S(=O)(=O)c2ccc(F)cc2)[C@@H](O)[C@H]1O,inconclusive: 22.5%
2,C[C@H]1CN([C@@H](C)CO)C(=O)c2cc(NC(=O)C3CC3)ccc2O[C@@H]1CN(C)Cc1ccc(-c2ccccc2)cc1,inconclusive: 21.5%
3,COc1ccc(NC(=O)N(C)C[C@H]2Oc3ccc(NC(=O)NC4CCCCC4)cc3C(=O)N([C@@H](C)CO)C[C@@H]2C)cc1,active: 45.6%
4,N#C[C@@H]1[C@H](c2ccc(C#Cc3ccc(F)cc3)cc2)[C@@H](CO)N1C(=O)C1CCCC1,active: 51.1%
5,CN(C)CCNC(=O)C1CC(=O)N(c2ccc(F)c(Cl)c2)C1 (stereo not given),inconclusive: 28.8%
6,COc1ccc2c3c([nH]c2c1)[C@H](CO)N(C)CC31CN(C(=O)C2CC2)C1,active: 44.8%
7,O=C(Nc1cccc(S(=O)(=O)N2CCOCC2)c1)C1CCN(S(=O)(=O)c2ccccc2)CC1,inconclusive: 21.4%
8,O=NN(Cc1cccnc1)C(=O)NC1CCCCC1,inconclusive: 23.2%
9,O=C(CNC(=O)c1ccco1)OCc1ccccc1Cl,inconclusive: 20.6%
10,O=C(CNc1cccc(S(=O)(=O)N2CCCCC2)c1)Nc1cccc(F)c1,inconclusive: 32.4%
11,COc1cccc(C(=O)N[C@H](C(=O)N2CCC[C@H]2C(=O)NCCc2ccccc2Cl)C(C)C)c1,inconclusive: 26%
12,C[C@H](CO)N1C[C@H](C)[C@@H](CN(C)S(=O)(=O)c2ccc(F)cc2)Oc2ncc(C#CC3(O)CCCC3)cc2C1=O,inconclusive: -1.69%
13,O=C(Cn1cnc2c(NCc3ccccc3)ncnc21)NCc1ccc2c(c1)OCO2,inactive: 11.6%
14,c1ccc(NN(Cc2ccccn2)c2ccccc2)cc1,inconclusive: 33%
15,C[C@@H]1CN([C@@H](C)CO)C(=O)c2cc(-c3ccccc3)cnc2O[C@H]1CN(C)C(=O)C1CCCCC1,active: 50.8%
16,CCC(Oc1ccccc1F)C(=O)NCCCn1ccnc1 (stereo not given),inconclusive: 34.4%
17,CCc1nnc(NC(=O)C(c2ccccc2)c2ccccc2)s1,inactive: 1.84%
18,CCC(=O)Nc1ccc2c(c1)C(=O)N(C)[C@@H]1CC[C@@H](CC(=O)NC3Cc4ccccc4C3)O[C@@H]1CO2,active: 30.4%
19,Cc1ccc(CNc2ncnc3c2cnn3C2CCCCO2)cc1 (stereo not given),inconclusive: 28.1%
20,COc1ccc(C(=O)N2CCNC(=O)C2CC(=O)Nc2cccc(Cl)c2Cl)cc1 (stereo not given),active: 88.8%
21,COc1ccc(C(=O)Nc2ccccc2N2CCOCC2)cc1S(=O)(=O)N1CCOCC1,inactive: -1.06%
22,CC(C)S(=O)(=O)c1csc(NC(=O)Nc2cccc([N+](=O)[O-])c2)c1Cl,inconclusive: 22.1%
23,CCC(=O)N1CC2(C1)CN(Cc1cccc(Cl)c1)[C@@H](CO)c1c2c2ccc(OC)cc2n1C,inconclusive: 26.5%
24,CC(C)Nc1cc(C(C)(C)C)nc2c(-c3ccccc3)cnn12,active: 46%
25,COc1cccc(CSc2nnc(CSc3nc4nc(C)cc(C)n4n3)s2)c1,inactive: 0.009%

row,SMILES,CPE inhibition
1,O=C(Cn1cnc2c(oc3ccccc32)c1=O)NCc1ccccc1,inconclusive: 34.3%
2,Cc1cccc(C)c1NC(=O)C1(C)CN(S(C)(=O)=O)CC(=O)N1CCCN1CCOCC1 (stereo not given),inconclusive: 26%
3,CCCC[C@@H]1CC2=C(C(=O)OC(C)(C)O2)[C@@H](c2ccc(F)cc2)O1,inconclusive: 26.1%
4,C[C@@H]1CN([C@H](C)CO)C(=O)c2cc(NC(=O)Cc3cn(C)c4ccccc34)ccc2O[C@@H]1CN(C)Cc1ccc2c(c1)OCO2,inconclusive: 27.7%
5,COCc1ccc(-c2c(-c3ccccc3OC)sc3cc4c(cc23)OCO4)cc1,inactive: -6.73%
6,Cc1ccc(CNC(=O)C2(C)CCN2C(=O)Cc2ccc(-c3ccccc3)cc2)cc1 (stereo not given),inconclusive: 51.8%
7,CN(Cc1ccco1)c1ncnc2ccc(-c3ccc4c(ccn4C)c3)cc12,inconclusive: 41.1%
8,C[C@@H]1CN([C@@H](C)CO)C(=O)c2cc(C#Cc3ccccc3F)cnc2O[C@H]1CN(C)C(=O)Cc1ccccc1,inconclusive: 34.3%
9,O=C(C[C@@H]1C=C[C@H](NS(=O)(=O)c2ccccc2)[C@@H](CO)O1)N1CCC(Cc2ccccc2)CC1,inconclusive: 35.8%
10,CCSc1oc(-c2cccs2)nc1S(=O)(=O)c1ccccc1,inconclusive: 65.2%
11,COc1ccc(/C=N/N2CCN(Cc3ccccc3)CC2)cc1,inconclusive: 23.8%
12,CN1CCN(c2ccc([N+](=O)[O-])cc2NC(=O)c2cccs2)CC1,inconclusive: 60.3%
13,C/C=C/c1ccc([C@H]2[C@@H](CNC(=O)c3ccncc3)N(C(C)=O)[C@H]2CO)cc1,inconclusive: -10.8%
14,O=C(COC(=O)c1cc(Cl)nc2ccccc12)c1ccc(Cl)cc1,active: 62.7%
15,CCC(C)(C)NC(=O)Cn1c(=O)oc2cc(S(=O)(=O)N3CC(C)CC(C)C3)ccc21 (stereo not given),inactive: 0.627%
16,N#CCC(=O)N1CCCCCC1,inconclusive: 25.3%
17,COc1ccc(CCN(C(=O)c2snc(C(N)=O)c2N)C(C)C(=O)NC2CCCCC2)cc1OC (stereo not given),inconclusive: 52.2%
18,CCCS(=O)(=O)NC(=O)C1(C)CCCN(C(=O)c2cccnc2Oc2ccccc2)C1 (stereo not given),inconclusive: 31.5%
19,CC1NC(=O)NC1CCCCCC(=O)Nc1ccc(F)cc1 (stereo not given),inactive: -0.757%
20,CO[C@@H]1CN(C)C(=O)c2cc(NC(C)=O)ccc2OC[C@@H](C)N(Cc2ccc(F)cc2)C[C@@H]1C,inactive: 5.82%
21,C[C@H](CO)N1C[C@H](C)[C@@H](CN(C)CC2CCCC2)Oc2cc(Br)ccc2S1(=O)=O,inactive: 15.2%
22,COc1ccccc1C(=O)Nc1ccnn1C1CCN(C(=O)c2cnsn2)CC1,inconclusive: 68.6%
23,O=C(Cc1cccs1)N/N=C/c1ccccn1,inactive: 0.274%
24,O=C(NC1CCN(Cc2ccccc2)CC1)c1[nH]c(C(F)(F)F)nc1-c1ccccc1,inconclusive: 21.1%
25,CN1C(=O)c2cc(NC(=O)Cc3cccs3)ccc2OC[C@@H]2O[C@H](CC(=O)NCC3CCCCC3)CC[C@@H]21,inconclusive: 83.3%

# Entries listed so far with a nitro group on carbon:
row,SMILES,CPE inhibition
22,CC(C)S(=O)(=O)c1csc(NC(=O)Nc2cccc([N+](=O)[O-])c2)c1Cl,inconclusive: 22.1%
12,CN1CCN(c2ccc([N+](=O)[O-])cc2NC(=O)c2cccs2)CC1,inconclusive: 60.3%

# From PubChem BioAssay AID651640 (Broad Institute, 2012)
